Reference: patent CN110642952A
Positions count from the first letter of the chain named. Results are given in words; binding and its absence hold for the method and conditions named. Some results given as binding are weak or reduced against the parent protein; the word gives no strength.

Sequences of proteins named here, by UniProt entry; tags and fusion partners are left off. A change or cut given only in a name is not applied to a line headed by its entry.
UniProt P21860: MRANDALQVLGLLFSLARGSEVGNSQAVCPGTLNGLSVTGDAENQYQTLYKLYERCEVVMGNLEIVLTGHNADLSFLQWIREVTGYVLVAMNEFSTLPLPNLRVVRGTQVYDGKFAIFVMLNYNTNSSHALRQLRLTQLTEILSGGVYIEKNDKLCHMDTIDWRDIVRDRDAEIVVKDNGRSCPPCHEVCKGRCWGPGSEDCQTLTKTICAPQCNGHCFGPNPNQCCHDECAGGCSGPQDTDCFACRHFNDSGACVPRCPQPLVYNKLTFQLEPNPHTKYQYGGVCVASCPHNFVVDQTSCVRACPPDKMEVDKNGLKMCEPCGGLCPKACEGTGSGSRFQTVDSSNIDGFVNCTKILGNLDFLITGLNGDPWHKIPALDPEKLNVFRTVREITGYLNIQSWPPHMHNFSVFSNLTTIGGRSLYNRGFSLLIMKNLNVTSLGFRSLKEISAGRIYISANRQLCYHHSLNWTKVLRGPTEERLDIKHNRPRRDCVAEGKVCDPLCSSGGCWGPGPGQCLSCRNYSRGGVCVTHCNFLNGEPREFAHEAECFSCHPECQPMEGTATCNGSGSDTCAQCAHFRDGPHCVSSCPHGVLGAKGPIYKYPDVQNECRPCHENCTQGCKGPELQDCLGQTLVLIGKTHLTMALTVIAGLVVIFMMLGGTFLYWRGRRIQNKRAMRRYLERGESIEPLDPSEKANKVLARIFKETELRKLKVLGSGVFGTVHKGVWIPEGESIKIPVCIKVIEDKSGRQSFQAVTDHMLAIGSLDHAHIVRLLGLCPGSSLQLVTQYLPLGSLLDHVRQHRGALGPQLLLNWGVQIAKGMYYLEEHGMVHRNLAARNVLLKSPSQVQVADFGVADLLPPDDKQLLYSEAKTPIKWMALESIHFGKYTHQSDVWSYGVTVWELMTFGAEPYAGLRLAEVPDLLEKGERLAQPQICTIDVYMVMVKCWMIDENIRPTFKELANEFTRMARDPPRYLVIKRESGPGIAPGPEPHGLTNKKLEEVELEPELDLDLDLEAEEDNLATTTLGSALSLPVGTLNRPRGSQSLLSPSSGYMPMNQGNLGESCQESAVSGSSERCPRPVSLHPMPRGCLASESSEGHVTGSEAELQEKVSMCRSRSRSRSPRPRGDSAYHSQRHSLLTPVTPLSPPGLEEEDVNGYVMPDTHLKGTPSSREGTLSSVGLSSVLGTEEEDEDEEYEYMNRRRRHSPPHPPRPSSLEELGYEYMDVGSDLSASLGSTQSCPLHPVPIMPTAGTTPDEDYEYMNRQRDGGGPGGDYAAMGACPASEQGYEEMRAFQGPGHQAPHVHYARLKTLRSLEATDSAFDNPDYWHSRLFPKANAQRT

B1: HER3鼠源单克隆抗体993 (antibody, V domains shown)
VH: EVKLVESGGGLVKPGGSLKLSCAASGFTFSSYSLSWVRQTPEKRLEWVASITFGGTAYYSDSVKGRFTISRDNARNILYLQMSSLKSEDTAMYYCVRGDGYEDPMDYWGQGTSVTVSS
VL: DIVMTQTTVSLAVSLGQRATISCRASESVDSYGKSFMHWYQQKPGQPPKLLIYRASNLESGIPARFSGSGSRTDFTLTINPVEADDVSTYYCQQSNEDPYTFGGGTKLEIR
B2: HER3鼠源单克隆抗体1044 (antibody, V domains shown)
VH: EVQLQQSGTELMKPGASVKISCKATGGTFSNYWIDWVKQRPGHGLEWIGEILPGSGGTDYNEKFKGKATFTADTSSNTAYMQLSSLTSEDSAVYYCARDDYDVFAYWGQGTLVTVSS
VL: DIVMTQAAFSNPVTLGTSASISCRSSKSLLHSNGITYLYWYLQKPGQSPQLLIYQMSNLASGVPDRFSSSGSGTDFTLRISRVEAEDVGVYYCAQNLELPWTFGGGTKLEIKR
B3: HER3鼠源单克隆抗体1050 (antibody, V domains shown)
VH: QVQLQQSGPELVKPGASVKISCKASGYSFTSYYIHWVKQRPGQGLEWIGWIFPGSGHTKCNENFKAKATLTADTSSSTAYMQLSSLTSEDSAVYFCARSRDYYGSNAVDYWGQGTSVTVSS
VL: DIVMTQSPSSLTVTAGEKVTMSCKSSQSLLNSGNQKNYLTWYQQKPGQPPKLLIYWASTRESGVPDRFSGSGSGTDFTLTISSVQAEDLAVYYCQNDYSYPYTFGGGTKLEIKR
B4: HER3人-鼠嵌合单克隆抗体993 (antibody, human IgG1, kappa, V domains shown)
VH: B1 VH
VL: DIVMTQTTVSLAVSLGQRATISCRASESVDSYGKSFMHWYQQKPGQPPKLLIYRASNLESGIPARFSGSGSRTDFTLTINPVEADDVSTYYCQQSNEDPYTFGGGTKLEIRT
B5: HER3人-鼠嵌合单克隆抗体1050 (antibody, human IgG1, kappa, V domains shown)
VH: B3 VH
VL: B3 VL
B6: HER3鼠源单克隆抗体927 (antibody, V domains shown)
VH: B3 VH with Q1E, G54R, K59N, C60Y, N63K, A66G, L83V, S105T, V108M
VL: B3 VL with L30F, S69T

What was measured:
[1] = target: HER3胞外区结构域DⅢ与hGH融合表达 (human) (UniProt P01241); assay: ELISA: antibody coated, hGH-fused HER3 domain segments
[2] = target: 细胞表面Her3分子 (SKBR-3细胞) (human) (UniProt P21860); assay: flow cytometry on SKBR-3 cells, antibody 10 μg/ml, FITC goat anti-mouse IgG
[3] = target: HER3胞外区结构域DⅠ与hGH融合表达 (human) (UniProt P01241); assay: ELISA: antibody coated, hGH-fused HER3 domain segments
[4] = target: HER3 (human) (UniProt P21860); assay: ELISA of 72 h CHO culture supernatant, HRP goat anti-human IgG

| Binder | binding [1] | binding [2] | binding [3] | binding [4] |
| --- | --- | --- | --- | --- |
| B1 | binds |  |  |  |
| B2 | binds | binds |  |  |
| B3 |  |  | binds |  |
| B4 |  |  |  | binds |
| B5 |  |  |  | binds |
| B6 |  | binds | binds |  |
